# Some of the results follow.
# Protein sequences, listed by entry. Tags and fused reporters are not part of them. Lines headed by an entry give the natural chain unless they say otherwise; changes in a name come on top.
# UniProt Q9NWV4: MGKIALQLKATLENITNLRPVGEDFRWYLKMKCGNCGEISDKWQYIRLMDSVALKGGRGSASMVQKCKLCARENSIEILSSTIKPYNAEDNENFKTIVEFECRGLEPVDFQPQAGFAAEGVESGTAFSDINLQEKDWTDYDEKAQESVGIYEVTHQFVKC
# UniProt P99999: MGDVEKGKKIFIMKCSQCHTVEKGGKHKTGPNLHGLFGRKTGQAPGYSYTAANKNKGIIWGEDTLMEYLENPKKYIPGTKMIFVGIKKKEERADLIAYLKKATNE
# UniProt Q13561, whole entry, looked up: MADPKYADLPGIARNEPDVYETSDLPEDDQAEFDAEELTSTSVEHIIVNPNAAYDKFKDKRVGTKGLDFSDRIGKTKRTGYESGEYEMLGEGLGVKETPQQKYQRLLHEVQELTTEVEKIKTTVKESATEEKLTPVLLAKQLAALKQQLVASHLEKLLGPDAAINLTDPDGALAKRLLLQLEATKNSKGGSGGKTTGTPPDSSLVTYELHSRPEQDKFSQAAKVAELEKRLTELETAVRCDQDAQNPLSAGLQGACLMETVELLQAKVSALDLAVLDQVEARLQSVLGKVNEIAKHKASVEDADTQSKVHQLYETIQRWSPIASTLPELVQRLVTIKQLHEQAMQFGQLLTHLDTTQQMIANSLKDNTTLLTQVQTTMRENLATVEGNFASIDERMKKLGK
# UniProt Q8TEB1, whole entry, looked up: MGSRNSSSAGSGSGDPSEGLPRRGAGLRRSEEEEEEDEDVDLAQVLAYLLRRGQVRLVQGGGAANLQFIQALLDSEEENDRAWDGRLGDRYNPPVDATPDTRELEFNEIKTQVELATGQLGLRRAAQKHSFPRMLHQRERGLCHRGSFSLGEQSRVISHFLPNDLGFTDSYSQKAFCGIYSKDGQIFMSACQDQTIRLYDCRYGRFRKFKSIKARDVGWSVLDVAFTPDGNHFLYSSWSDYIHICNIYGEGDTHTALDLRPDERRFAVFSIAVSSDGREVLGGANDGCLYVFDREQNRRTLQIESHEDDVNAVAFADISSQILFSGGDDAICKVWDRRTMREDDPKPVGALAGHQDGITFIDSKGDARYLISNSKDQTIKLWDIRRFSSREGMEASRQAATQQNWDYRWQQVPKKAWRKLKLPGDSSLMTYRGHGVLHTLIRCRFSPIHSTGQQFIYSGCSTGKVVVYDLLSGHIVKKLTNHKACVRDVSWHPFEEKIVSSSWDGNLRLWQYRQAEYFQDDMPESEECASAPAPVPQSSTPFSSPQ
# UniProt Q9H0L4: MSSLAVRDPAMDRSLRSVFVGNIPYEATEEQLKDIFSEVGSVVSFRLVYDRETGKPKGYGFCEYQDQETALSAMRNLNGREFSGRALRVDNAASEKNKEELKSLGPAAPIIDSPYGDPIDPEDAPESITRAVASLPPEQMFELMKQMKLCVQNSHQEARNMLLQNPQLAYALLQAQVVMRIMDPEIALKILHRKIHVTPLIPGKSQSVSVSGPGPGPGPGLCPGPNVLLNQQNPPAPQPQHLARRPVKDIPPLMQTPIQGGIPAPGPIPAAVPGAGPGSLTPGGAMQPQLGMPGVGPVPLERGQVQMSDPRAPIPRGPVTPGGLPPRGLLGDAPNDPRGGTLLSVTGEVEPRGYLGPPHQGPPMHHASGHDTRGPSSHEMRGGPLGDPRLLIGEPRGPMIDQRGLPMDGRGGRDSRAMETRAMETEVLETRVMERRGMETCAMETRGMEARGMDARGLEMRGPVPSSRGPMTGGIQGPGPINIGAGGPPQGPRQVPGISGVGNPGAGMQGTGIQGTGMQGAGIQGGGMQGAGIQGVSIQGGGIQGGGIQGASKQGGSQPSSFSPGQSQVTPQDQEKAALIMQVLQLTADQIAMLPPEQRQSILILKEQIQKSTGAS
# UniProt P26232: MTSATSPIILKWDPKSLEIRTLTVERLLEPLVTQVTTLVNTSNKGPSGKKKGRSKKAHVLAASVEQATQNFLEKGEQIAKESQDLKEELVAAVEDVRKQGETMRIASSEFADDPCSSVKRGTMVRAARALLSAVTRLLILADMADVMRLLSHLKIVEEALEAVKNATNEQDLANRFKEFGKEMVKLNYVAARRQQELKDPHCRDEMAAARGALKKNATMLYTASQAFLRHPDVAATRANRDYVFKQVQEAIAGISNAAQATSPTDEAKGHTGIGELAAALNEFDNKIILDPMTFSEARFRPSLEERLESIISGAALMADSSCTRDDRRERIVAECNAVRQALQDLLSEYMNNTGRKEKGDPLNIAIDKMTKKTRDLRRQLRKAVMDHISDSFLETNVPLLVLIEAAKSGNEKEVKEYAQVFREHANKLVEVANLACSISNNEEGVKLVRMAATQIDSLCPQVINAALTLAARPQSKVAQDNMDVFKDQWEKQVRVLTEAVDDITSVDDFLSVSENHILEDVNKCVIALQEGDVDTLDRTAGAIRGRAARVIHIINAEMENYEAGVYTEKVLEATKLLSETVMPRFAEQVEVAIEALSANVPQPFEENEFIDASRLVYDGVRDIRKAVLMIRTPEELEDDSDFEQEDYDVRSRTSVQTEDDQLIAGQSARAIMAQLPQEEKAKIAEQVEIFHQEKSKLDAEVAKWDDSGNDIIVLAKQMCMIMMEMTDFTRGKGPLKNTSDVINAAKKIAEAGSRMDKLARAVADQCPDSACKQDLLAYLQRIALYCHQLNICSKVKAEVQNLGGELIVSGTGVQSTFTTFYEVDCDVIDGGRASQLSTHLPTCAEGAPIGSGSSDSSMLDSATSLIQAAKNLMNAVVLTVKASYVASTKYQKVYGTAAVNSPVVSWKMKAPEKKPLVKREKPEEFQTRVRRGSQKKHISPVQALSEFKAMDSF
# UniProt Q96C86: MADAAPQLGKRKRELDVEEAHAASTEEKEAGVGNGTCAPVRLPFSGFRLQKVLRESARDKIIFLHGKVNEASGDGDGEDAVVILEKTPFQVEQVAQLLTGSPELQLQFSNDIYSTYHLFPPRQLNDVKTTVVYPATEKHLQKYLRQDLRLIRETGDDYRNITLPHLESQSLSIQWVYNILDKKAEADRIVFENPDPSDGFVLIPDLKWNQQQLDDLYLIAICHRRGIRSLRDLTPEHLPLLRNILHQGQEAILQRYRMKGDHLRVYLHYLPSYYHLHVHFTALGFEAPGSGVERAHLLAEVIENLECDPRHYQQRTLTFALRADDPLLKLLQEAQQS
# UniProt O43310: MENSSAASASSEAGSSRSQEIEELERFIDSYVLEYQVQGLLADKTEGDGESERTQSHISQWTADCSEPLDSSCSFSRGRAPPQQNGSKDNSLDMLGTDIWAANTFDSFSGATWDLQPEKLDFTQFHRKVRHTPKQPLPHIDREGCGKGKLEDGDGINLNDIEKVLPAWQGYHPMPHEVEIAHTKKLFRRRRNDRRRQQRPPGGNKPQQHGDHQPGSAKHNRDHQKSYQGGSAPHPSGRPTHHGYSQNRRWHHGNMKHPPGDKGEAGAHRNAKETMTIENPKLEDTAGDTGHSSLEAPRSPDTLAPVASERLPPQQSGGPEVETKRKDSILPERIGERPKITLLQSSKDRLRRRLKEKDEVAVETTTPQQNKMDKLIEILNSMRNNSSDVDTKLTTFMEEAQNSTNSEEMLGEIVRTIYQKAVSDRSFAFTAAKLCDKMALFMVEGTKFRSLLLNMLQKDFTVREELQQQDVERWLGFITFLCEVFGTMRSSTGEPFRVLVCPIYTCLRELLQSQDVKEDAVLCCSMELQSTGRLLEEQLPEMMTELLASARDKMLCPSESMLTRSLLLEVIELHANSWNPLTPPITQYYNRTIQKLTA
# UniProt P49711: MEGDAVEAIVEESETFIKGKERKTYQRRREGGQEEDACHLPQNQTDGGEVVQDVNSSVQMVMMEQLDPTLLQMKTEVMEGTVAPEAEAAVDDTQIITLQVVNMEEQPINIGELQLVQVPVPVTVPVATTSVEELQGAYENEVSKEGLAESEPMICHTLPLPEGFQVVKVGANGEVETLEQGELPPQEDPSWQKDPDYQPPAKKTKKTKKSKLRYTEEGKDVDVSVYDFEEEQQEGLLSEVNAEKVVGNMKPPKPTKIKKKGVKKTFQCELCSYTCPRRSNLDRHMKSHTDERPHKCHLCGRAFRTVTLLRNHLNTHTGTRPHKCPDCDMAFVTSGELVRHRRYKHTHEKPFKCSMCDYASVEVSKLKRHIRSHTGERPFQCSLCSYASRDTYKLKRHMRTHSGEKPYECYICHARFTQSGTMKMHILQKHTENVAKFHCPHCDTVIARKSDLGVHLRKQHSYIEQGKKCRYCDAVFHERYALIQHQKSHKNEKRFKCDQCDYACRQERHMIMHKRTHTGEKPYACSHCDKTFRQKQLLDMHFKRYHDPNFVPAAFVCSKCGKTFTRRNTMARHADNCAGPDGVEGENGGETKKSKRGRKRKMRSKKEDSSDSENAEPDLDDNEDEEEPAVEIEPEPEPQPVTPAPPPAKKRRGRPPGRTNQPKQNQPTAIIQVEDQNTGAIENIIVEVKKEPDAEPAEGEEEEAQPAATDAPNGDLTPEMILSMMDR
# UniProt P04080: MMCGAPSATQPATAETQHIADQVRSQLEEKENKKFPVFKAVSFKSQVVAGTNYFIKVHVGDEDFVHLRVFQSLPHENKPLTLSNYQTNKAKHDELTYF
# UniProt Q13618, whole entry, looked up: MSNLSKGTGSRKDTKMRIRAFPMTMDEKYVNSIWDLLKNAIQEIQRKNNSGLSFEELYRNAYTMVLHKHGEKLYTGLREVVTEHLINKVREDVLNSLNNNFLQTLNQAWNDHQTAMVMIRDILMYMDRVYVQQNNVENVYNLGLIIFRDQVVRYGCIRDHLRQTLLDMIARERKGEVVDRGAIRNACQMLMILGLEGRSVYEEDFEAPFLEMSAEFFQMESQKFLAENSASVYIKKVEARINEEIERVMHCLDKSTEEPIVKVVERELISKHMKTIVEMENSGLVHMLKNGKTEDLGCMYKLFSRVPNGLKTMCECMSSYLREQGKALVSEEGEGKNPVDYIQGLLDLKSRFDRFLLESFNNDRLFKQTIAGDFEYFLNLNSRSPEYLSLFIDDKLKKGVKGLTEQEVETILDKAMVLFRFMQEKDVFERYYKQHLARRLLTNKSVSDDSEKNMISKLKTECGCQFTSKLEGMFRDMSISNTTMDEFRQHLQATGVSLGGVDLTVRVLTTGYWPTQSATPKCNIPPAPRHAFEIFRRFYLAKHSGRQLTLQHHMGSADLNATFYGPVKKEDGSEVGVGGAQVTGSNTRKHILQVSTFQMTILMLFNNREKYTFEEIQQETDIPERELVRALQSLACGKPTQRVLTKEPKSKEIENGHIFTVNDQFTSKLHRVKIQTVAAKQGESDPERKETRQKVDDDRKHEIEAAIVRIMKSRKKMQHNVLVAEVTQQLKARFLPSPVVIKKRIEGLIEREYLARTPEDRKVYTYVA
# UniProt O00399, whole entry, looked up: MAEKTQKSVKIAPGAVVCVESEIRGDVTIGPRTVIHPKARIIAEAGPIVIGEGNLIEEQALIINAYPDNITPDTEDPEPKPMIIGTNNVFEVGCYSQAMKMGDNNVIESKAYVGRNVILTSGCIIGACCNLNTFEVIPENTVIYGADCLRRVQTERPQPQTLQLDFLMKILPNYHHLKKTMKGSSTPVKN
# UniProt Q9NTM9: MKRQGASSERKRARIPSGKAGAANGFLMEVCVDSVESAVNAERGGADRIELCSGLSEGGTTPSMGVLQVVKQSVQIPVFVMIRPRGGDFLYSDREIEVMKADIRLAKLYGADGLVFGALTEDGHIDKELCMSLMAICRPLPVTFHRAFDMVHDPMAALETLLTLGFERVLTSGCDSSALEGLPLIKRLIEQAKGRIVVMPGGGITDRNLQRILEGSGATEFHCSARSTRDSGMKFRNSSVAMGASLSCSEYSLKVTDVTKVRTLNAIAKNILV
# UniProt Q9NPI6: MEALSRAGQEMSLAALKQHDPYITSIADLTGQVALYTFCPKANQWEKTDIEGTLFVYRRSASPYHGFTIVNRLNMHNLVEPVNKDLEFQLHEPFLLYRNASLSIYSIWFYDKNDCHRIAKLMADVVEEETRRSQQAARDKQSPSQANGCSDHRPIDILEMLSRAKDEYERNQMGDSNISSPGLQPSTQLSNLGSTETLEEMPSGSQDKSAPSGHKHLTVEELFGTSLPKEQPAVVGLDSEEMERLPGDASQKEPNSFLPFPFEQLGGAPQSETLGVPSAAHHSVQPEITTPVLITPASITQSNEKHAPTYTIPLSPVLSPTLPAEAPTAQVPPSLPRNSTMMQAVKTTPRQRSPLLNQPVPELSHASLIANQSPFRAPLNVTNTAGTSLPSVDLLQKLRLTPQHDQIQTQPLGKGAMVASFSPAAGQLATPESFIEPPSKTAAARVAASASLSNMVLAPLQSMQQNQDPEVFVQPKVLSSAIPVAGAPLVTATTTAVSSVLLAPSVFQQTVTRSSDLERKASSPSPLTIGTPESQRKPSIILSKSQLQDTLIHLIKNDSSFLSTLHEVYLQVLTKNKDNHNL
# UniProt O75935, whole entry, looked up: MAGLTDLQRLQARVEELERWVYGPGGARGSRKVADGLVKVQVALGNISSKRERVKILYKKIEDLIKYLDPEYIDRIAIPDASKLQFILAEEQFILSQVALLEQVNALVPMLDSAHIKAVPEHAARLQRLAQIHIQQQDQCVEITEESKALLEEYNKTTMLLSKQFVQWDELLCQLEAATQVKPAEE
# Compound: C=CC(=O)N1CCC[C@@H](n2nc(-c3ccc(Oc4ccccc4)cc3)c3c(N)ncnc32)C1 [ibrutinib]
# Assay: log2 fold change, soluble protein after heating vs DMSO (PISA); higher = thermal stabilisation; K562 cells, 10 uM, 30 min; active = over 0.2 and 3.5 SD of the protein, either way, in both replicates (recomputed)
# Procedure, shortened: (§1)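 K562 cells at 2×10^6 cells/mL were treated with 10 μM compound for 30 min. Aliquots were heated for 3 min across 48°C-58°C, pooled, and extracted in PBS with 0.5% NP-40 at 4°C; soluble protein was the supernatant after 21,000xg for 90 min. Soluble protein was quantified by TMTpro 16plex LC-MS/MS with channel sums equalised, and reported as log2 fold change in thermal stability against DMSO controls, with values from duplicates.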
row,Target,log2 fold change
1,CTPS2 (UniProt Q9NRF8),inactive: 0.011
2,CWC25 (UniProt Q9NXE8),inactive: -0.071
3,CYFIP2 (UniProt Q96F07),inactive: 0.019
4,CZIB (UniProt Q9NWV4),inactive: -0.002
5,DARS (UniProt P14868),inactive: 0.035
6,CYCS (UniProt P99999),inactive: -0.02
7,DARS2 (UniProt Q6PI48),inactive: 0.015
8,DAP3 (UniProt P51398),inactive: 0.065
9,CTBP1 (UniProt Q13363),inactive: 0.039
10,DCTN2 isoform 2 (UniProt Q13561),inactive: -0.041
11,CSTF1 (UniProt Q05048),inactive: -0.011
12,DCAKD (UniProt Q8WVC6),inactive: -0.015
13,DCK (UniProt P27707),inactive: 0.025
14,CYB5R4 (UniProt Q7L1T6),inactive: -0.037
15,CWF19L1 (UniProt Q69YN2),inactive: 0.01
16,DCAF11 (UniProt Q8TEB1),inactive: 0.047
17,CSTF2T (UniProt Q9H0L4),inactive: -0.025
18,CTU2 (UniProt Q2VPK5),inactive: 0.002
19,CUL2 isoform 2 (UniProt Q13617),inactive: 0.011
20,CTNNA2 (UniProt P26232),inactive: -0.014

row,Target,log2 fold change
1,CYB5R2 (UniProt Q6BCY4),inactive: -0.009
2,DCPS (UniProt Q96C86),inactive: 0.014
3,CTIF isoform 2 (UniProt O43310),inactive: -0.134
4,CUL1 (UniProt Q13616),inactive: 0.017
5,CTCF (UniProt P49711),inactive: 0.005
6,CSTB (UniProt P04080),inactive: 0.008
7,CUL3 (UniProt Q13618),inactive: -0.006
8,CTH (UniProt P32929),inactive: 0.009
9,CUL4B (UniProt K4DI93),inactive: 0.018
10,CYP20A1 (UniProt Q6UW02),inactive: -0.066
11,DCTN6 (UniProt O00399),inactive: 0.015
12,CYHR1 (UniProt E9PJD7),inactive: 0.073
13,CUTC (UniProt Q9NTM9),inactive: 0.013
14,DCP1A (UniProt Q9NPI6),inactive: -0.009
15,CSPP1 (UniProt Q1MSJ5),inactive: 0.014
16,DCAF1 (UniProt Q9Y4B6),inactive: 0.002
17,CT45A10 (UniProt P0DMU9),inactive: 0
18,CYB5R1 (UniProt Q9UHQ9),inactive: -0.016
19,DCTN3 (UniProt O75935),inactive: -0.042

# Compound: CC(=O)c1cnc2ccc(-c3cc(Cl)c(O)c(Cl)c3)nc2c1N[C@H]1CC[C@H](CN(C)C)CC1
# Assay: as above
# Procedure, shortened: as §1
row,Target,log2 fold change
1,CTPS2 (UniProt Q9NRF8),inactive: 0.02
2,CWC25 (UniProt Q9NXE8),inactive: 0.007
3,CYFIP2 (UniProt Q96F07),inactive: -0.097
4,CZIB (UniProt Q9NWV4),inactive: 0.044
5,DARS (UniProt P14868),inactive: 0.04
6,CYCS (UniProt P99999),inactive: 0.028
7,DARS2 (UniProt Q6PI48),inactive: 0.055
8,DAP3 (UniProt P51398),inactive: 0.007
9,CTBP1 (UniProt Q13363),inactive: -0.009
10,DCTN2 isoform 2 (UniProt Q13561),inactive: 0.019
11,CSTF1 (UniProt Q05048),inactive: 0.043
12,DCAKD (UniProt Q8WVC6),inactive: -0.015
13,DCK (UniProt P27707),inactive: 0.046
14,CYB5R4 (UniProt Q7L1T6),inactive: -0.011
15,CWF19L1 (UniProt Q69YN2),inactive: 0.031
16,DCAF11 (UniProt Q8TEB1),inactive: 0.036
17,CSTF2T (UniProt Q9H0L4),inactive: 0.007
18,CTU2 (UniProt Q2VPK5),inactive: 0.025
19,CUL2 isoform 2 (UniProt Q13617),inactive: 0.007
20,CTNNA2 (UniProt P26232),inactive: -0.004

row,Target,log2 fold change
1,CYB5R2 (UniProt Q6BCY4),inactive: 0.005
2,DCPS (UniProt Q96C86),inactive: -0.02
3,CTIF isoform 2 (UniProt O43310),inactive: 0.001
4,CUL1 (UniProt Q13616),inactive: 0.031
5,CTCF (UniProt P49711),inactive: 0.092
6,CSTB (UniProt P04080),inactive: -0.041
7,CUL3 (UniProt Q13618),inactive: -0.022
8,CTH (UniProt P32929),inactive: 0.05
9,CUL4B (UniProt K4DI93),inactive: -0.016
10,CYP20A1 (UniProt Q6UW02),inactive: 0
11,DCTN6 (UniProt O00399),inactive: 0.007
12,CYHR1 (UniProt E9PJD7),inactive: -0.013
13,CUTC (UniProt Q9NTM9),inactive: -0.08
14,DCP1A (UniProt Q9NPI6),inactive: -0.157
15,CSPP1 (UniProt Q1MSJ5),inactive: -0.12
16,DCAF1 (UniProt Q9Y4B6),inactive: -0.017
17,CT45A10 (UniProt P0DMU9),inactive: 0.103
18,CYB5R1 (UniProt Q9UHQ9),inactive: -0.019
19,DCTN3 (UniProt O75935),inactive: 0.002

# Source: the supplement of paper PMC10849652
